Experimental data: paper PMC9868778 (Planta Medica, 2022)

Legend:
[1] = Fraction unbound in placental homogenate; assay type: in vitro ADME; conditions: human, placental homogenate (5-fold diluted in PBS)
[2] = Stability of compounds in PBS, perfusion medium and placental homogenate; assay type: in vitro ADME, human; conditions: 360 min

Question: With `CN1C(=O)CN=C(c2ccccc2)c2cc(Cl)ccc21` [diazepam] as the molecule, how does the fraction unbound at 240 min, 2 µM [1] read?
Answer: The fraction unbound at 240 min, 2 µM was 0.09 ± 0.007.

Question: And the “stability in PBS” value ([2]; 4 °C and 37 °C)?
Answer: The value was “slightly less stable”.

Question: And the “stability in placental homogenate (degradation observed)” value ([2]; Donor 2, 37 °C)?
Answer: The value was 68.3%.

Question: What about the “stability in placental homogenate (degradation observed)” value ([2]; Donor 3, 37 °C) of the same molecule?
Answer: The value was 73.3%.

Question: What about the “fetal-maternal concentration ratio (FM ratio)” value (after 360 min, antipyrine from control perfusions) of the same molecule?
Answer: Its value is 0.98.

Question: And the “F perfusate (% found)” value (human, pH 7.3)?
Answer: Its value is 7.9%.
